Test results reported in article PMC5855860.
Results are given in words; binding and its absence hold for the method and conditions named. For some assays here: Binding seen in cells or lysates may run through a third protein. Tags and fused reporters may be left off the sequences shown.

What was measured:
[1] = molecular target: T1, RTNLB6, yeast two-hybrid fusion (Arabidopsis thaliana), Q6DBN4; assay: two-hybrid; LexA bait fusions (pSST91) and GAL4 activation domain prey fusions (pGAD424) in yeast CTY10-5d, 30 °C; colony colour on SD medium with X-Gal lacking leucine and tryptophan; the same strains also in liquid ONPG β-galactosidase assays; conditions: remark: other sources report otherwise
T1 chain: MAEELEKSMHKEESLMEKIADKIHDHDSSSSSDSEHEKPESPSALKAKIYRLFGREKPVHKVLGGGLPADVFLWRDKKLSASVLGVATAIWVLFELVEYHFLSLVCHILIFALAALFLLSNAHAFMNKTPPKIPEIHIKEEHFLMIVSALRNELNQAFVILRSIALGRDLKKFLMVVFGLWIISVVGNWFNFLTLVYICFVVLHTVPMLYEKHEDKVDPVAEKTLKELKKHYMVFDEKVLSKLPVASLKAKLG

[2] = molecular target: T2, GST-RTNLB8 fusion protein (Arabidopsis thaliana) (UniProt Q9SS37); assay: pull-down; GST fusion or GST only on glutathione-sepharose beads, incubated with T7-tagged proteins from E. coli; bound proteins eluted with glutathione; blot with anti-T7 tag and anti-GST antibodies
T2 sequence: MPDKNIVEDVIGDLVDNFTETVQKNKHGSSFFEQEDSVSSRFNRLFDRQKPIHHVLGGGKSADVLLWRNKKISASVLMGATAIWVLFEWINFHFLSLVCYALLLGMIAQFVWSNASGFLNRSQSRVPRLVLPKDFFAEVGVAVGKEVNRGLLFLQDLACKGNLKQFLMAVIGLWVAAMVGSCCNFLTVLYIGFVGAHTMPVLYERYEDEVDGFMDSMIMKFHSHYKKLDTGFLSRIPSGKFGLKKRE

[3] = molecular target: T3, RETICULON-LIKE3 (RTNLB3), yeast two-hybrid fusion (Arabidopsis thaliana), Q9SH59; assay: two-hybrid; LexA bait fusions (pSST91) and GAL4 activation domain prey fusions (pGAD424) in yeast CTY10-5d, 30 °C; colony colour on SD medium with X-Gal lacking leucine and tryptophan; the same strains also in liquid ONPG β-galactosidase assays; conditions: remark: other sources report otherwise
T3 chain: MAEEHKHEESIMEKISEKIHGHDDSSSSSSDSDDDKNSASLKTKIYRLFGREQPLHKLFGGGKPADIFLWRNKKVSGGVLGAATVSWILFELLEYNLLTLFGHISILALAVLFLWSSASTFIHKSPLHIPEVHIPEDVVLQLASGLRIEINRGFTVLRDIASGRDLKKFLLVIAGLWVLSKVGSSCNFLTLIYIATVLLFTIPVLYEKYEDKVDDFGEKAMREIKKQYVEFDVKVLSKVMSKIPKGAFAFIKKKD

[4] = molecular target: T4, RETICULON-LIKE3 (RTNLB3), yeast two-hybrid fusion (Arabidopsis thaliana) (UniProt Q9SH59); assay: as above
T4 sequence: T3 chain

[5] = molecular target: T5, RTNLB5, yeast two-hybrid fusion (Arabidopsis thaliana) (UniProt O82352); assay: as above
T5 sequence: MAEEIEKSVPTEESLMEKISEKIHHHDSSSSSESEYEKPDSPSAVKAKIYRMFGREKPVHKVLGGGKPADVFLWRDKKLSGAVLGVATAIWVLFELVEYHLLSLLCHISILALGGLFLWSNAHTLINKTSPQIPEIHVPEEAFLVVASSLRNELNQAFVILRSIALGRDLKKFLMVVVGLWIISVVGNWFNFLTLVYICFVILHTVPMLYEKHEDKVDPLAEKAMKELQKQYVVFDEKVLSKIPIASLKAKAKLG

[6] = molecular target: T6, RTNLB6, yeast two-hybrid fusion (Arabidopsis thaliana) (UniProt Q6DBN4); assay: as above
T6 sequence: T1 chain

[7] = molecular target: T7, RTNLB7, yeast two-hybrid fusion (Arabidopsis thaliana) (UniProt Q9M145); assay: as above
T7 sequence: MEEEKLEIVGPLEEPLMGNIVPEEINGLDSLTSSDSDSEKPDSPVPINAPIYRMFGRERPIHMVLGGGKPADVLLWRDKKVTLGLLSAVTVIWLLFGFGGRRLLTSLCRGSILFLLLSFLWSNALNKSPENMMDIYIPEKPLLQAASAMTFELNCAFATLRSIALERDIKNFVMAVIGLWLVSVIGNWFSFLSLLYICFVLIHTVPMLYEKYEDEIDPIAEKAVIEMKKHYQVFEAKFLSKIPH

[8] = molecular target: T8, RTNLB8, yeast two-hybrid fusion (Arabidopsis thaliana) (UniProt Q9SS37); assay: as above
T8 sequence: T2 sequence

[9] = molecular target: T9, reticulon-like protein B1 (RTNLB1), yeast two-hybrid fusion (Arabidopsis thaliana) (UniProt Q9SUR3); assay: as above
T9 sequence: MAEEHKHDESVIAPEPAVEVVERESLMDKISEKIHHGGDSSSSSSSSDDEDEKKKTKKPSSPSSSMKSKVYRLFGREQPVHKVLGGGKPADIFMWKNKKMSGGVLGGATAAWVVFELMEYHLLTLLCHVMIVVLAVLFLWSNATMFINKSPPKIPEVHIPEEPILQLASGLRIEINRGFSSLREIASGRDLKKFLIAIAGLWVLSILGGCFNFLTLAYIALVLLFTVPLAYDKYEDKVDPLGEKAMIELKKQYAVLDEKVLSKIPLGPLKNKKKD

[10] = molecular target: T10, reticulon-like protein B2 (RTNLB2), yeast two-hybrid fusion (Arabidopsis thaliana) (UniProt Q9SUT9); assay: as above
T10 sequence: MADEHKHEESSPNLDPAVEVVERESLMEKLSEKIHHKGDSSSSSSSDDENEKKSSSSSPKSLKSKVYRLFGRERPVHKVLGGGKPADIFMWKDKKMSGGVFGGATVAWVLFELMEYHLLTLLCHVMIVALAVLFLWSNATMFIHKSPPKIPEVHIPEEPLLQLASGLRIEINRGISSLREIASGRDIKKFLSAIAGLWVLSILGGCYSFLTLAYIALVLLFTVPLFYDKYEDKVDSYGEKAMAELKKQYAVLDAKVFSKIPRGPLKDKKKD

[11] = molecular target: T11, reticulon-like protein B4 (RTNLB4), yeast two-hybrid fusion (Arabidopsis thaliana) (UniProt Q9FFS0); assay: as above
T11 sequence: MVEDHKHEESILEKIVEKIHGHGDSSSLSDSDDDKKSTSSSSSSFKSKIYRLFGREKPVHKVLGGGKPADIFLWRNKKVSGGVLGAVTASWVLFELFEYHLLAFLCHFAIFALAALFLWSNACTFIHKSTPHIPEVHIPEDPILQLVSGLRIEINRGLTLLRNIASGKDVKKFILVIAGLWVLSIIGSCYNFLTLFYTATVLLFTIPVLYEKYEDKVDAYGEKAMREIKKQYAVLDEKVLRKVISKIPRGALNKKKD

Measured: binding

B1: RETICULON-LIKE3 (RTNLB3), yeast two-hybrid fusion, Q9SH59 1-255 (protein)
chain: T3 chain
no binding: [1]

B2: T7-tagged-RTNLB8 protein (protein, UniProt Q9SS37 1-247)
chain: T2 sequence
no binding: [2]

B3: RTNLB6, yeast two-hybrid fusion, Q6DBN4 1-253 (protein)
chain: T1 chain
no binding: [3] | [1]

B4: RTNLB5, yeast two-hybrid fusion (protein, UniProt O82352 1-255)
chain: T5 sequence
not listed: [1] | [2] | [3]
no binding: all other assays above

B5: RTNLB7, yeast two-hybrid fusion (protein, UniProt Q9M145 1-244)
chain: T7 sequence
not listed: [1] | [2] | [3]
no binding: all other assays above
